Laboratory results as given in the supplement of paper PMC11006884.
The entries are a selection whose mix differs from that of the whole data set.

Protein sequences, listed by entry. Tags and fused reporters are not part of them. Lines headed by an entry give the natural chain unless they say otherwise; changes in a name come on top.
UniProt Q99986: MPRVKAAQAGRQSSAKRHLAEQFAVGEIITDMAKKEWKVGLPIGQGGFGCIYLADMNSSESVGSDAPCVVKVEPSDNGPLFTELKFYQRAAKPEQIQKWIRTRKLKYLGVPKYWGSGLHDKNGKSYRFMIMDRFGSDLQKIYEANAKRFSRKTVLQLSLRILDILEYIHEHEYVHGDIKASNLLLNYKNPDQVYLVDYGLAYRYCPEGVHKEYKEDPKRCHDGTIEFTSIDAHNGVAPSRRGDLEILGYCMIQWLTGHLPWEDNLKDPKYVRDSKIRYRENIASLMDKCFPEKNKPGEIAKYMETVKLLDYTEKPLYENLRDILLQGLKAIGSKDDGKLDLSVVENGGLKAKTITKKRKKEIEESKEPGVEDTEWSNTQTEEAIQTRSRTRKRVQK
UniProt Q96RR1: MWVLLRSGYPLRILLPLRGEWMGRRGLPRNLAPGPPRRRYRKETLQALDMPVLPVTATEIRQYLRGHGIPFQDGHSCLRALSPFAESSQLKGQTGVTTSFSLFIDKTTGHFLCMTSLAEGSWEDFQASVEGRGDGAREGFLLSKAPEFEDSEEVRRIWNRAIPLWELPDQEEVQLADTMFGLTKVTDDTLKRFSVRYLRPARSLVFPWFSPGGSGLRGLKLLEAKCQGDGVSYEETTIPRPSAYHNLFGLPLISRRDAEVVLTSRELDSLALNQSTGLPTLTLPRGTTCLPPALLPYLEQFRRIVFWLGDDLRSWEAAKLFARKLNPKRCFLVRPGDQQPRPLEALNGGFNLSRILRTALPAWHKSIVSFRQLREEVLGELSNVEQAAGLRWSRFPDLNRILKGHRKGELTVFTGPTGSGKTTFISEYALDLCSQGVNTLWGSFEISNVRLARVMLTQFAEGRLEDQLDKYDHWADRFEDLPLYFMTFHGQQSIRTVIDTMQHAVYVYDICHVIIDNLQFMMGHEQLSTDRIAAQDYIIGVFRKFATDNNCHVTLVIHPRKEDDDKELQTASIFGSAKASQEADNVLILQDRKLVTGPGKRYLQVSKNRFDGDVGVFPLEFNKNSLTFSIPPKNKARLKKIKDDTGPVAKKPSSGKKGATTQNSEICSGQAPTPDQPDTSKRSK
UniProt Q96SI9: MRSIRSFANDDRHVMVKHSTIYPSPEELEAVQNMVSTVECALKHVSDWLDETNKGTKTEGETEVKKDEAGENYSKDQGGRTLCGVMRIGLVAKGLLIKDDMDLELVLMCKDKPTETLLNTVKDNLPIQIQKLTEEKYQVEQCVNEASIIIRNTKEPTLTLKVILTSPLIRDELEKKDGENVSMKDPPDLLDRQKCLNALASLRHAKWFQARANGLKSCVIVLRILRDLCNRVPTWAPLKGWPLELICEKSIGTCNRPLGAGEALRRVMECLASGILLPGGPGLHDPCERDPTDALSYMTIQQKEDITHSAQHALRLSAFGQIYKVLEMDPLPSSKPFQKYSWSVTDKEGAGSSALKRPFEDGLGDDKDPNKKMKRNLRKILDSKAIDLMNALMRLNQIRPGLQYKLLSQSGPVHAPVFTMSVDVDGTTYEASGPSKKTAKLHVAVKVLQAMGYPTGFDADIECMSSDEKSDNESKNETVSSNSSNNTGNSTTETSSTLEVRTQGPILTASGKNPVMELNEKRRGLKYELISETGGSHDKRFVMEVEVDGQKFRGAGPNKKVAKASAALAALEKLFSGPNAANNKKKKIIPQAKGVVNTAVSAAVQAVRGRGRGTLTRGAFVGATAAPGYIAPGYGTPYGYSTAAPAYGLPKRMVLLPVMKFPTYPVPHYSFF
UniProt Q96T76: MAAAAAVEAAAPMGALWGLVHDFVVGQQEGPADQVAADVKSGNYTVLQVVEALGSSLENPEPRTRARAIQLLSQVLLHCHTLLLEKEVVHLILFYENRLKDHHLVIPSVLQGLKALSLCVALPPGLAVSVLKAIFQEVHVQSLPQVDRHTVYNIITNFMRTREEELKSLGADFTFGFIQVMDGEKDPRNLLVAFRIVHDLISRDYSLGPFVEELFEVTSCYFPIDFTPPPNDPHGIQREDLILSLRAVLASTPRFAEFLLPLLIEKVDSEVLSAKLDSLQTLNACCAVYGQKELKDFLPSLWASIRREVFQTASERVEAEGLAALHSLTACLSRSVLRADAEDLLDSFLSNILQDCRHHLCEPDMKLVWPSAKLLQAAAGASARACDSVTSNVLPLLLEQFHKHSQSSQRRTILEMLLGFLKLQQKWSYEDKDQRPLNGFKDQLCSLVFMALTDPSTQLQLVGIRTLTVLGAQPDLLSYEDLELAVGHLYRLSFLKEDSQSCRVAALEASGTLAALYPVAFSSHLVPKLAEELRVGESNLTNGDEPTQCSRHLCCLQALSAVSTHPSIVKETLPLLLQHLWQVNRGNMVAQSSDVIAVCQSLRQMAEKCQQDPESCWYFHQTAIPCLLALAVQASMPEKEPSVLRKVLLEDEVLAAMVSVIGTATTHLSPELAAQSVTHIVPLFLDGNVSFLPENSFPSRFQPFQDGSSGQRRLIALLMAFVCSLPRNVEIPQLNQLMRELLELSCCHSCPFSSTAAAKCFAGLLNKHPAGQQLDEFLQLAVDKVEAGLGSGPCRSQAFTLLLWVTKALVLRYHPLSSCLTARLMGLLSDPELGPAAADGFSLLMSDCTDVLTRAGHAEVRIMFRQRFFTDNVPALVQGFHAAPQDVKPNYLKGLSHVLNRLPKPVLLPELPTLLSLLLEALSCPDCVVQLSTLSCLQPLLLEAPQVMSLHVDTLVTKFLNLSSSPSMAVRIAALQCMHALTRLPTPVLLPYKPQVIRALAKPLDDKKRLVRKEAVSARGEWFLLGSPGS
UniProt Q96T58, whole entry, looked up: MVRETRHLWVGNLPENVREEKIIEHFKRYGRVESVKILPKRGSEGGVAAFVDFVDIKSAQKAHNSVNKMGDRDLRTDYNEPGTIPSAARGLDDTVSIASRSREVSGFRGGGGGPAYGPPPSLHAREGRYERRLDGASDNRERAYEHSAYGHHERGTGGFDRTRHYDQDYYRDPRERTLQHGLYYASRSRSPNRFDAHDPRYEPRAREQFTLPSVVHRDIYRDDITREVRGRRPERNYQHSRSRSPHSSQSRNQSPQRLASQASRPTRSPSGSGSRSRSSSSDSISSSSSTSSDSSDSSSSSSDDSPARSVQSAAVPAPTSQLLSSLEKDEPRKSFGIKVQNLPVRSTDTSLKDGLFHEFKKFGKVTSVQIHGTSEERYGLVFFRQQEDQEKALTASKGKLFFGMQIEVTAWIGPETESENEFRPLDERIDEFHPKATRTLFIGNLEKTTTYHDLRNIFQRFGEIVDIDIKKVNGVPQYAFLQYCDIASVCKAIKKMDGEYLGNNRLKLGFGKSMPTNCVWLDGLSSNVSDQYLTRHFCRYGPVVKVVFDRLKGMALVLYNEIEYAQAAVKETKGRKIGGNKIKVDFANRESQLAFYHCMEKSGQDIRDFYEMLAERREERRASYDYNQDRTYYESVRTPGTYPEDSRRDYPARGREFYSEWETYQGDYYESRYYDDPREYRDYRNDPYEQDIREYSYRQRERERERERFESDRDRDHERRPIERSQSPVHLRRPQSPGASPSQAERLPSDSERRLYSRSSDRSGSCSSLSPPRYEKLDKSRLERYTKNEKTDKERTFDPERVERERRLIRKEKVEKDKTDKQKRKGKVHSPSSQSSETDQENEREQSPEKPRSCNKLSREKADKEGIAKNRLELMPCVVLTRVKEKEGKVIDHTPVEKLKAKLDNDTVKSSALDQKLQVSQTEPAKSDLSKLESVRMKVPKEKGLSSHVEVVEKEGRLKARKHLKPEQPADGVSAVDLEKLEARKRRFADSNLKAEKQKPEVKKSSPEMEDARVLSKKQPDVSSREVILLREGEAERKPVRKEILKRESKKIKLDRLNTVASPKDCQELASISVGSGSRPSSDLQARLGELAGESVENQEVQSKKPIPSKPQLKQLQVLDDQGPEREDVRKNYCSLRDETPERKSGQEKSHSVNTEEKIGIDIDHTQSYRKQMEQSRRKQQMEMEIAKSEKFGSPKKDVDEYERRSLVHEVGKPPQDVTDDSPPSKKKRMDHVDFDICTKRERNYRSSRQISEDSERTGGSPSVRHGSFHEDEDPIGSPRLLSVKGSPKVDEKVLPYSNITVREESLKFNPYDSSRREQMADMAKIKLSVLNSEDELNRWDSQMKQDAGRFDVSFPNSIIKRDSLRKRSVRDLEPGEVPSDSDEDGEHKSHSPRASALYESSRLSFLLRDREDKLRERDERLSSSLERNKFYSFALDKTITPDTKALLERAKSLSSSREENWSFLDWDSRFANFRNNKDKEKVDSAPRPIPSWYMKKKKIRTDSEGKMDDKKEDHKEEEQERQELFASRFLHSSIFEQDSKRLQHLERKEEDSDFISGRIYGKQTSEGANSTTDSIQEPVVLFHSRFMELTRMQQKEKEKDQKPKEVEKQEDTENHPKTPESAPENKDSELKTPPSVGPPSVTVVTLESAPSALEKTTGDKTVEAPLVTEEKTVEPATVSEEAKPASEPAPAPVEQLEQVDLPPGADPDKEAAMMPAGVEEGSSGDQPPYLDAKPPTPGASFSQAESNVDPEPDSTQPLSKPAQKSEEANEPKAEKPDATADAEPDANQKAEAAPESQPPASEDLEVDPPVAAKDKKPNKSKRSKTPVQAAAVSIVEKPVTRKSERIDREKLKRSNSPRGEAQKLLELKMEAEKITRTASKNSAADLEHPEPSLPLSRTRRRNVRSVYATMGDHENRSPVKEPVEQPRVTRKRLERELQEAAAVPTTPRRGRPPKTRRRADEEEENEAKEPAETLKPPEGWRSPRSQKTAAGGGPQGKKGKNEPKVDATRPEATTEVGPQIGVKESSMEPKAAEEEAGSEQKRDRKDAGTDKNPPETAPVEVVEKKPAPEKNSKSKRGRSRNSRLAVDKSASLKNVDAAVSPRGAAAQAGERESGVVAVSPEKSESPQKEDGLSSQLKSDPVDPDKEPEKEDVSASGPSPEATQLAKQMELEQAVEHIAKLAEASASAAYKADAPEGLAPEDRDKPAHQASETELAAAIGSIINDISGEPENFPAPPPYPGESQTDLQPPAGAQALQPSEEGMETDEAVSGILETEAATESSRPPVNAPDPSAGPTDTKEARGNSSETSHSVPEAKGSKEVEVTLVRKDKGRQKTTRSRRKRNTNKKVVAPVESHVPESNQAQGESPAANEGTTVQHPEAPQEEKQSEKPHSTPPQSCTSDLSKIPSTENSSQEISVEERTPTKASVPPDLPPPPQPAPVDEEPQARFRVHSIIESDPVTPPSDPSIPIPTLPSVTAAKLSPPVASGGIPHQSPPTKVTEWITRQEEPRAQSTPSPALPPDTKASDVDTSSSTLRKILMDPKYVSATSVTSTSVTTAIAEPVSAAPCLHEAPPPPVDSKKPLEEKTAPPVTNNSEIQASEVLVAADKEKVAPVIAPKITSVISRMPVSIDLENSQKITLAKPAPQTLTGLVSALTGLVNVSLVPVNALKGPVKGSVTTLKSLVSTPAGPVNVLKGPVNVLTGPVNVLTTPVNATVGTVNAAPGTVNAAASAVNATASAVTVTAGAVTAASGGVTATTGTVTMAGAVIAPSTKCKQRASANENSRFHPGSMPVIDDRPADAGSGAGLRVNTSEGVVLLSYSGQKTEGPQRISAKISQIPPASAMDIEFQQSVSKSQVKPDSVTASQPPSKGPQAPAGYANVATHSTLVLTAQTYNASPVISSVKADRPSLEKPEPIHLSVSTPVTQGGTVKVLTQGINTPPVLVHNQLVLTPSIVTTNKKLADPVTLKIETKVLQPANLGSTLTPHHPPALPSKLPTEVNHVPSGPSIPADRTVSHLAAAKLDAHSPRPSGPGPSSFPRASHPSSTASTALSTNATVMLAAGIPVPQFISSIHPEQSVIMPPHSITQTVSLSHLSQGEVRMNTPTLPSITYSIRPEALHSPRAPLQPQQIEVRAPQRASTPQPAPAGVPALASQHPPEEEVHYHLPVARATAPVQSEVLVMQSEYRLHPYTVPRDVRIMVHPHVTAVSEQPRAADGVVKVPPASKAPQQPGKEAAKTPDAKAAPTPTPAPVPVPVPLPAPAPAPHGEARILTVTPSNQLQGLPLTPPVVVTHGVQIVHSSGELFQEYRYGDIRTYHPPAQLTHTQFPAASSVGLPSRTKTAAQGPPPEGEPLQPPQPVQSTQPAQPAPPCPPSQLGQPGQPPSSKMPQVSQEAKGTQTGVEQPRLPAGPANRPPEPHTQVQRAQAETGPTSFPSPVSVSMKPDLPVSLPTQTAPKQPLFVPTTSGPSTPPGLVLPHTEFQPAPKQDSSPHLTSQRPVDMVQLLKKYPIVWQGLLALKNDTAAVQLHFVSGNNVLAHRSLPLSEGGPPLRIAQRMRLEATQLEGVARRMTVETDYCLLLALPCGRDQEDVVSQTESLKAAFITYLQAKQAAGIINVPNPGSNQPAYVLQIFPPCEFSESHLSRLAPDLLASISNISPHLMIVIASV

What follows are targets tested with COC(=O)C#Cc1ccccc1 [methyl 3-phenylpropiolate] (assay: log2 ratio of iodoacetamide-alkyne labeling of the cysteine site, DMSO over compound (competition); higher = stronger covalent engagement of the cysteine by the compound, active = 1 or more). Settings: 500 µM; treatment time 1 h; system: HEK293T cell lysate.
Procedure, shortened: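 HEK293T lysate (2 mg/mL) was treated with DMSO or electrophile (500 µM, 1 h, ambient temperature), then iodoacetamide alkyne (1 h), clicked to sCIP-TMT reagents, pooled, trypsin-digested overnight at 37 °C, streptavidin-enriched and acid-eluted. Peptides were run on Orbitrap Eclipse LC-MS/MS with FAIMS and quantified in FragPipe. The log2 competition ratio per cysteine is mean control-channel over mean compound-channel reporter intensity. Duplicate channels and three replicates were used, and cysteines quantified in only one replicate were excluded.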

log2 ratio of iodoacetamide-alkyne labeling, inactive:
ZFR C974 (UniProt Q96KR1) 0.302
POP1 C408 (UniProt Q99575) -0.153
CDK5RAP2 C249 (UniProt Q96SN8) 0.522
VRK1 C50 (UniProt Q99986) 0.344
UniProt Q96RR1_C289 -0.209
NUDCD1 C376 (UniProt Q96RS6) 0.65
SRPK1 C356 (UniProt Q96SB4) 0.281
STRBP C40 (UniProt Q96SI9) 0.168
DDX50 C242 (UniProt Q9BQ39) 0.0336
MMS19 C386 (UniProt Q96T76) 0.445
SPEN C3632 (UniProt Q96T58) 0.433
UniProt Q99590_C450 0.563
WDR24 C474 (UniProt Q96S15) -0.713
EHMT2 C1115 (UniProt Q96KQ7) 0.617

Already shown: entries from further up.
log2 ratio of iodoacetamide-alkyne labeling, inactive:
NUDCD1 C376 (UniProt Q96RS6) 0.65
SRPK1 C356 (UniProt Q96SB4) 0.281
